PubChem BioAssay AID1117269 – University of Michigan – 2014
Aim: 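Kinome-wide knockdown screen for regulators of TGF-beta reporter output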 (primary screen). Cell system: human A549 lung cancer and 1833 breast cancer (MDA-MB-231-derived) cell lines carrying a stable BTR luciferase reporter. Reagent: siRNA pool against human genes. Time to read-out: 72 h after transfection, then 1 h TGF-beta before the read. Treatment: TGF-beta 10 ng/mL added one hour before luciferin and read-out. Measurement: 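Live-cell BTR luciferase signal at 72 h after transfection and 1 h of TGF-beta at 10 ng/mL, fold versus scrambled siRNA, triplicate mean for each line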. Reading the numbers: fold over scrambled siRNA, A549 and fold over scrambled siRNA, 1833: higher = more reporter light, weaker TGF-beta receptor signalling. Active means: 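Hit in either line counts as active; per-line hits lie above an upper limit from quartiles of averaged log fold values, in plate and screen-wide analyses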. Meaning of the calls: active = hit in at least one line; inactive = hit in neither line.
This is one part, drawn at random, of 714 reagents tested. Of all reagents, 49 (6.9%) were called active. 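Active means a hit in at least one line; per-line hit columns show which; some siRNA pools appear more than once.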 Some reagents were tested in more than one well and are listed for each. Not stated in the record: the amount of reagent.

| target gene | fold over scrambled siRNA, A549 | fold over scrambled siRNA, 1833 | hit in A549 | hit in 1833 | outcome |
| --- | --- | --- | --- | --- | --- |
| MAPK4 (GeneID 5596) | 3.95 | 6.51 | not a hit in A549 | not a hit in 1833 | inactive |
| PRPS1 (GeneID 5631) | 1.08 | 2.36 | not a hit in A549 | not a hit in 1833 | inactive |
| PIK3R3 (GeneID 8503) | 1.58 | 3.4 | not a hit in A549 | not a hit in 1833 | inactive |
| KDR (GeneID 3791) | 1.81 | 3.68 | not a hit in A549 | not a hit in 1833 | inactive |
| PHKA1 (GeneID 5255) | 0.942 | 2.21 | not a hit in A549 | not a hit in 1833 | inactive |
| TTK (GeneID 7272) | 2.29 | 2.91 | not a hit in A549 | not a hit in 1833 | inactive |
| SRMS (GeneID 6725) | 0.619 | 1.21 | not a hit in A549 | not a hit in 1833 | inactive |
| PRKAA1 (GeneID 5562) | 6.83 | 2.93 | hit in A549 | not a hit in 1833 | active |
| MAP3K21 (GeneID 84451) | 1.43 | 1.47 | not a hit in A549 | not a hit in 1833 | inactive |
| DCK (GeneID 1633) | 1.26 | 7.94 | not a hit in A549 | not a hit in 1833 | inactive |
| PRKACB (GeneID 5567) | 4.23 | 3.07 | not a hit in A549 | not a hit in 1833 | inactive |
| CAMKV (GeneID 79012) | 0.989 | 2.33 | not a hit in A549 | not a hit in 1833 | inactive |
| MAPK7 (GeneID 5598) | 3.24 | 6.48 | not a hit in A549 | not a hit in 1833 | inactive |
| INSRR (GeneID 3645) | 1.69 | 2.7 | not a hit in A549 | not a hit in 1833 | inactive |
| PI4K2B (GeneID 55300) | 0.624 | 1.66 | not a hit in A549 | not a hit in 1833 | inactive |
| SRPK2 (GeneID 6733) | 1.14 | 5.1 | not a hit in A549 | not a hit in 1833 | inactive |
| PGK1 (GeneID 5230) | 1.9 | 5.24 | not a hit in A549 | not a hit in 1833 | inactive |
| NEK1 (GeneID 4750) | 3.14 | 6.38 | not a hit in A549 | not a hit in 1833 | inactive |
| IP6K3 (GeneID 117283) | 1.14 | 3.67 | not a hit in A549 | not a hit in 1833 | inactive |
| ULK4 (GeneID 54986) | 1 | 1.4 | not a hit in A549 | not a hit in 1833 | inactive |
| NEK8 (GeneID 284086) | 0.86 | 2.4 | not a hit in A549 | not a hit in 1833 | inactive |
| STK16 (GeneID 8576) | 3.19 | 5.73 | not a hit in A549 | not a hit in 1833 | inactive |
| PFKFB4 (GeneID 5210) | 2.14 | 5.27 | not a hit in A549 | not a hit in 1833 | inactive |
| ROCK2 (GeneID 9475) | 4.83 | 0.852 | not a hit in A549 | not a hit in 1833 | inactive |
| PNKP (GeneID 11284) | 2.58 | 5.29 | not a hit in A549 | not a hit in 1833 | inactive |
| FLT1 (GeneID 2321) | 4.62 | 5 | not a hit in A549 | not a hit in 1833 | inactive |
| BRSK1 (GeneID 84446) | 3.23 | 2.93 | not a hit in A549 | not a hit in 1833 | inactive |
| BRSK1 (GeneID 84446) | 4.05 | 2.7 | not a hit in A549 | not a hit in 1833 | inactive |
| TSSK3 (GeneID 81629) | 3.6 | 1.62 | not a hit in A549 | not a hit in 1833 | inactive |
| TTBK2 (GeneID 146057) | 1.78 | 4.33 | not a hit in A549 | not a hit in 1833 | inactive |
| EPHA5 (GeneID 2044) | 2.43 | 2.67 | not a hit in A549 | not a hit in 1833 | inactive |
| CDC7 (GeneID 8317) | 3.4 | 3.27 | not a hit in A549 | not a hit in 1833 | inactive |
| PACSIN1 (GeneID 29993) | 1.84 | 2.77 | not a hit in A549 | not a hit in 1833 | inactive |
| PKMYT1 (GeneID 9088) | 1.52 | 3.44 | not a hit in A549 | not a hit in 1833 | inactive |
| PIM2 (GeneID 11040) | 3.33 | 6.12 | not a hit in A549 | not a hit in 1833 | inactive |
| PKIA (GeneID 5569) | 0.752 | 0.857 | not a hit in A549 | not a hit in 1833 | inactive |
| TPD52L3 (GeneID 89882) | 2 | 42 | not a hit in A549 | hit in 1833 | – |
| CDK1 (GeneID 983) | 1.43 | 4.44 | not a hit in A549 | not a hit in 1833 | inactive |
| AAK1 (GeneID 22848) | 0.654 | 1.67 | not a hit in A549 | not a hit in 1833 | inactive |
| PIK3C2A (GeneID 5286) | 1.01 | 0.778 | not a hit in A549 | not a hit in 1833 | inactive |
| TPK1 (GeneID 27010) | 0.821 | 0.519 | not a hit in A549 | not a hit in 1833 | inactive |
| CDK15 (GeneID 65061) | 3.18 | 3.87 | not a hit in A549 | not a hit in 1833 | inactive |
| PTK2 (GeneID 5747) | 4.48 | 7.16 | not a hit in A549 | not a hit in 1833 | inactive |
| NRBP1 (GeneID 29959) | 1.43 | 3.52 | not a hit in A549 | not a hit in 1833 | inactive |
| PKN3 (GeneID 29941) | 3.76 | 6.6 | not a hit in A549 | not a hit in 1833 | inactive |
| MKNK2 (GeneID 2872) | 1.06 | 2.2 | not a hit in A549 | not a hit in 1833 | inactive |
| PRKG1 (GeneID 5592) | 2.23 | 3.87 | not a hit in A549 | not a hit in 1833 | inactive |
| CALM2 (GeneID 805) | 1.33 | 2.57 | not a hit in A549 | not a hit in 1833 | inactive |
| LRRK1 (GeneID 79705) | 2.62 | 4.16 | not a hit in A549 | not a hit in 1833 | inactive |
| MAP2K6 (GeneID 5608) | 3.05 | 5.52 | not a hit in A549 | not a hit in 1833 | inactive |
| HSPB8 (GeneID 26353) | 5.68 | 3.9 | hit in A549 | not a hit in 1833 | active |
| LMBR1 (GeneID 64327) | 3.38 | 6.19 | not a hit in A549 | not a hit in 1833 | inactive |
| MAP3K9 (GeneID 4293) | 1.73 | 4.07 | not a hit in A549 | not a hit in 1833 | inactive |
| CSNK1G3 (GeneID 1456) | 3.81 | 10.5 | not a hit in A549 | hit in 1833 | – |
| WNK2 (GeneID 65268) | 2.24 | 2.34 | not a hit in A549 | not a hit in 1833 | inactive |
| XYLB (GeneID 9942) | 1.38 | 11 | not a hit in A549 | hit in 1833 | – |
| CDKL5 (GeneID 6792) | 4.05 | 7.29 | not a hit in A549 | not a hit in 1833 | inactive |

Not a retest: entries from further up.
| target gene | fold over scrambled siRNA, A549 | fold over scrambled siRNA, 1833 | hit in A549 | hit in 1833 | outcome |
| --- | --- | --- | --- | --- | --- |
| ROCK2 (GeneID 9475) | 4.83 | 0.852 | not a hit in A549 | not a hit in 1833 | inactive |
| PNKP (GeneID 11284) | 2.58 | 5.29 | not a hit in A549 | not a hit in 1833 | inactive |
| FLT1 (GeneID 2321) | 4.62 | 5 | not a hit in A549 | not a hit in 1833 | inactive |
| BRSK1 (GeneID 84446) | 3.23 | 2.93 | not a hit in A549 | not a hit in 1833 | inactive |
| BRSK1 (GeneID 84446) | 4.05 | 2.7 | not a hit in A549 | not a hit in 1833 | inactive |
| TSSK3 (GeneID 81629) | 3.6 | 1.62 | not a hit in A549 | not a hit in 1833 | inactive |
| TTBK2 (GeneID 146057) | 1.78 | 4.33 | not a hit in A549 | not a hit in 1833 | inactive |
| EPHA5 (GeneID 2044) | 2.43 | 2.67 | not a hit in A549 | not a hit in 1833 | inactive |
